The campaign covered roughly 52,000 sequences. About 210 (0.4%) were called active.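 The calls were made as follows: active = gene whose silencing raises cell survival under the drug, median off-target-corrected z-score across its silencing RNAs 2 or more; inactive = the rest.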 This is one part of the list.

This test is described as follows: Resistance to Poly (ADP-Ribose) Polymerase inhibitor: Gene Identification via Genome-wide siRNA Screen. The conditions noted are these: mouse BRCA2 R2336H ES cells, olaparib, CellTiter-Glo viability; stronger effect = higher value. The text has this: The role of Poly (ADP-Ribose) Polymerase (PARP) proteins in DNA repair has been elegantly utilized for the synthetic lethality-based treatment of BRCA-deficient tumors by PARP inhibitors. PARP inhibitors are now being used for treatment of BRCA-deficient breast and ovarian cancers. […] While several mechanisms of drug resistance have been identified, majority of these tumors develop drug resistance due to unknown causes. To identified novel regulators of chemo-resistance in BRCA2-mutated cells, we performed a genome wide siRNA library screen. We have found ES cells expressing a hypomorphic allele of BRCA2 to be hypersensitive to PAPP inhibitors (such as olaparib). We used ES cells expressing a mutant allele of BRCA2 that has a single amino acid substitution at position 2336 (arginine to histidine, R2336H). The screen was conducted using an Ambion (Thermo) Silencer Mouse Genome siRNA collection. The library targets 17,575 mouse genes with 3 siRNAs per gene. TET2 (E130014J05Rik) was identified as a top candidate.
Transfections were performed in 384 well plates (Corning 3707). Plates were coated with 0.1% gelatin in H2O overnight at ambient temperature. Gelatin solution was aspirated (BioTek EL406) and siRNAs were printed using a Bravo VPrep liquid handler integrated within a BioCel automation platform (Agilent). Cell viability was measured using CellTiter Glo (Promega). For transfections, […] of serum free media containing Lipofectamine RNAiMax […] was added to wells containing siRNA (0.8pmol). Lipid and siRNA were allowed to complex for 45 min at ambient temperature before addition of 1000 cells in DMEM, 30% FBS to yield final transfection mixtures containing 20 nM siRNA in DMEM, 15% FBS. PARPi (olaparib, AZD2281) was added 48 h post-transfection (500 nM) and viability (CellTiter Glo, Promega) was assayed 72 h later on a PerkinElmer Envision 2104 Multilabel plate reader. Ambion Silencer Select Negative Control #2 was incorporated on all screening plates (16 wells) and the median negative control value on each plate was used for normalization. An siRNA targeting Trp53 was used as a positive control. This control yielded a median protective effect of ~1.9 fold versus negative control throughout the screen. The median absolute deviation (MAD) based z-score was calculated for each siRNA. Genes were then ranked by taking the median value for all siRNAs tested against a given gene. Scores were also adjusted for seed-based off-target effects to help deprioritize likely false positives.
Background: In ATP-based viability assays light output follows the ATP content of the culture.
Turning to GGGCACAGGAUCGUAUGAATT against Freq, the z-score was inactive: 1.3. The same measure for GGCAAUUCUGGAGGCUCUUTT against Ubqln1: inactive: 0.854. In the case of “GCUAAAAACAACUAGGAAATT against D430033N04Rik”, the z-score was inactive: 0.998. Consider CAGCAUCAAGCAGAAAAGATT against LOC432825, for which the z-score was inactive: -0.316. The same measure for “GGGCUUCAGUGAGAACGAUTT against 1500035H01Rik”: inactive: -2.36.

Regarding GCAUGGCCAAUCUACCCUUTT against Bcl9l, the z-score is inactive: 1.51. With CCUUCUAAUUAUCACCAAATT against Arhgap18, the z-score was inactive: 0.633. The same measure for GCAGAAACCUCAUCACUAATT against Bambi: inactive: 0.591; for CCAUCUACAAGUGUCCUUATT against Zfp276: inactive: -0.6.

GAGAUGUCGAUGCAAAUUCTT against Fxyd1: the z-score was inactive: -0.353.

Consider GGACAUUUCACAAGUCAAATT against Tceb1, for which the z-score is inactive: 1.42.

Consider GGUGAAUGAAACUUUCUGUTT against Adamts13, for which the z-score was inactive: 1.26. The same measure for GGAGAAACCAGCUAAAGGATT against Car9: inactive: -0.266; for “GGCUUUGUUAGUCUAUGACTT against 2610524A10Rik”: inactive: 1.22. Turning to “GGUGCAGAGCUGGUUGACUTT against 4930542G03Rik”, the z-score was inactive: -2.67. Then GGUUCUCGUGUGGCACACUTT against B3gat2, with inactive: -0.05; and “GCAGCUGAAAAUCGAGAACTT against 4933409I22”, with inactive: -1.18; and CCACACUCUUGGAAUUACGTT against Gsg1, with inactive: -0.337. Then CCUCGUUCCAAUCAAGCCUTT against Ftsj3, with inactive: -0.215; and GGAGGAAGCUCAUCUAUGATT against Rpl7, with inactive: -3.14. GGAAAUUACGCAUAUCCAUTT against Cntn1: the z-score is inactive: -0.857. The same measure for GGUCAUCAGUGAGCUGAAUTT against Rplp2: inactive: -2.78; for “GGAAAGACAAAGAACUCUATT against 1500011L16Rik”: inactive: -0.589; for “GCGAAUUGACAACUCCCUCTT against 3010027G13Rik”: inactive: -0.35. The same measure for “GGAAAUGAAUCUGAUCCUGTT against 9130231C15Rik”: inactive: -0.434; for GGUGUUAGGAAGUCACAUUTT against Tas2r109: inactive: -0.0271; for “GCGAAAAAUUCGGCAGCAGTT against 9430010O03Rik”: inactive: 1.04. Regarding CCGAGAAAUGGAAACUUAGTT against MGC91194, the z-score was inactive: -0.963.

Values taken from PubChem BioAssay AID1347423 (Functional Genomics Laboratory (NCATS/FGL), 2020).
